The results in this text go back to paper PMC12316266.

Series [1] concerns the target Dcp2 (Homo sapiens) (UniProt Q8IU60). The experiment in a line: EMSA. The settings on record: 2 mM m7GpppA cap analog, no Mg2+, 5' m7GpppAm cap (2'-O-methyl on first A), EMSA: same buffer plus 5% glycerol, 24 C, 25 nM RNA, S2B EMSA: 50 mM KOAc, 20 mM Tris-OAc pH 7.9, 10 mM MgOAc, 100 ug/ml BSA, 37 C, 50 nM RNA, recombinant protein, protein details: His6-protein G-TEV tag, removed by TEV.

The target of series [2] is eIF4E (Homo sapiens) (UniProt P06730). The experiment in a line: EMSA. The settings on record: 5' m7GpppAm cap (2'-O-methyl on first A), EMSA: same buffer plus 5% glycerol, no Mg2+, 24 C, 25 nM RNA, S2B EMSA: 50 mM KOAc, 20 mM Tris-OAc pH 7.9, 10 mM MgOAc, 100 ug/ml BSA, 37 C, 50 nM RNA, recombinant protein, protein details: His6-protein G-TEV tag, removed by TEV.

Construct, isoform or probe ends are uncertain for at least one entry. For part of these data: A negative result means that nothing was seen under these conditions. A weaker result is weaker than the reference pair of the same experiment.

Turning to “AGGAAAUAAGAGAGAAAAGAAGAGUAAGAAGAAAUAUAAGAGC [m7G-capped 43-mer RNA, 3' unlabeled]”, the binding result in series [1] is reported as “binds more weakly”; in series [2] (625 nM Dcp2 added after eIF4E, singly bound eIF4E species down ~4.5-fold), “binds more weakly”; in series [2] (2 mM m7GpppA cap analog) it was “no binding”.
